Data source: PubChem BioAssay AID686938 (Drosophila RNAi Screening Center, 2013)

Purpose: 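Fly genes required for calcium entry once internal stores are emptied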 (primary screen)
Cell system: Drosophila S2R+ cells
Reagent: long dsRNA against Drosophila genes, about 0.25 µg dsRNA per well, roughly 10,000 cells
Time to read-out: 5 days of knock-down before the calcium assay
Treatment: thapsigargin (SERCA pump blocker) to empty calcium stores; entry signal taken 4 min after adding it
Measurement: 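Per-well fluo-4 fluorescence in two replicates, unnormalised, measured in resting cells and 4 min after store depletion by the SERCA blocker thapsigargin; ratio of the two present in few wells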
Reading the numbers: calcium entry signal: higher = stronger calcium signal after store depletion; entry to resting ratio: higher = more calcium entry relative to resting level; resting calcium signal: higher = higher resting calcium signal
Units: calcium entry signal in fluorescence units; resting calcium signal in fluorescence units
Rule for the call: 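Hit if the duplicate-averaged plate z-score for entry over resting signal is under −3; wells with weak total dye signal (Fmax z < −2) or more than 5 off-targets removed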
Meaning of the calls: active = strongly reduced calcium entry; inactive = no strong reduction
In all, the deposit lists about 23,000 reagents; below is an unselected part of those that have a named target and a result. In the full data, 75 (0.33%) got an active call. 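Raw plate signals without normalisation; calls rest on plate z-scores that were not deposited; ratio present for only 364 wells.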 Unmarked entries are inactive. No sequences are given here. Not given: the dose of the treatment.

After knock-down of Tengl4 (Testis EndoG-Like 4) [DRSC15620], the screen gave calcium entry signal, replicate 1 = 4.34e7; calcium entry signal, replicate 2 = 3.68e7; resting calcium signal, replicate 1 = 2.08e7; resting calcium signal, replicate 2 = 1.93e7.
After knock-down of wac (wee Augmin) [DRSC08349], the record shows calcium entry signal, replicate 1 = 3.44e7; calcium entry signal, replicate 2 = 4.15e7; resting calcium signal, replicate 1 = 1.82e7; resting calcium signal, replicate 2 = 1.91e7.
Ser12 (Serine protease 12) [DRSC00786] scored calcium entry signal, replicate 1 = 2.87e7; calcium entry signal, replicate 2 = 3.35e7; resting calcium signal, replicate 1 = 1.51e7; resting calcium signal, replicate 2 = 1.55e7.
Silencing of png (pan gu) [DRSC18582] gave: calcium entry signal, replicate 1 = 3.48e7; calcium entry signal, replicate 2 = 3.79e7; entry to resting ratio 2; resting calcium signal, replicate 1 = 1.77e7; resting calcium signal, replicate 2 = 1.63e7.
CG7848 [DRSC07050] scored calcium entry signal, replicate 1 = 5.22e7; calcium entry signal, replicate 2 = 7.18e7; resting calcium signal, replicate 1 = 2.24e7; resting calcium signal, replicate 2 = 3.30e7.
CG5758 [DRSC02889] gave calcium entry signal, replicate 1 = 4.21e7; calcium entry signal, replicate 2 = 6.19e7; resting calcium signal, replicate 1 = 2.06e7; resting calcium signal, replicate 2 = 2.82e7.
CG5758 [DRSC02890] gave calcium entry signal, replicate 1 = 4.59e7; calcium entry signal, replicate 2 = 3.69e7; resting calcium signal, replicate 1 = 2.02e7; resting calcium signal, replicate 2 = 1.57e7.
Hip14 (Huntingtin-interacting protein 14) [DRSC10570] gave calcium entry signal, replicate 1 = 2.85e7; calcium entry signal, replicate 2 = 3.91e7; resting calcium signal, replicate 1 = 1.45e7; resting calcium signal, replicate 2 = 2.82e7.
After knock-down of CG3045 [DRSC04331], the screen gave calcium entry signal, replicate 1 = 3.65e7; resting calcium signal, replicate 1 = 1.80e7.
mats (mob as tumor suppressor) [DRSC13562] gave calcium entry signal, replicate 1 = 4.60e7; calcium entry signal, replicate 2 = 3.75e7; resting calcium signal, replicate 1 = 2.63e7; resting calcium signal, replicate 2 = 1.88e7.
With knock-down of mats (mob as tumor suppressor) [DRSC14702] the results were calcium entry signal, replicate 1 = 3.65e7; calcium entry signal, replicate 2 = 3.46e7; resting calcium signal, replicate 1 = 1.72e7; resting calcium signal, replicate 2 = 1.61e7.
For Cyp317a1 (Cytochrome P450 317a1) [DRSC07366], the values are calcium entry signal, replicate 1 = 3.12e7; calcium entry signal, replicate 2 = 4.26e7; resting calcium signal, replicate 1 = 1.68e7; resting calcium signal, replicate 2 = 2.06e7.
Knock-down of Gadd45 (Growth arrest and DNA damage-inducible 45) [DRSC06033] gave: calcium entry signal, replicate 1 = 4.52e7; calcium entry signal, replicate 2 = 3.60e7; resting calcium signal, replicate 1 = 1.94e7; resting calcium signal, replicate 2 = 1.75e7.
After knock-down of Cht11 (Chitinase 11) [DRSC18270], the screen gave calcium entry signal, replicate 1 = 2.92e7; calcium entry signal, replicate 2 = 3.80e7; resting calcium signal, replicate 1 = 1.55e7; resting calcium signal, replicate 2 = 1.71e7.
CG32054 [DRSC10684] gave calcium entry signal, replicate 1 = 2.63e7; calcium entry signal, replicate 2 = 4.26e7; resting calcium signal, replicate 1 = 1.43e7; resting calcium signal, replicate 2 = 1.81e7.
CG1545 [DRSC21532] gave calcium entry signal, replicate 1 = 4.23e7; calcium entry signal, replicate 2 = 3.85e7; resting calcium signal, replicate 1 = 2.47e7; resting calcium signal, replicate 2 = 2.04e7.
wls (wntless) [DRSC10605] scored calcium entry signal, replicate 1 = 3.28e7; calcium entry signal, replicate 2 = 3.22e7; resting calcium signal, replicate 1 = 1.97e7; resting calcium signal, replicate 2 = 1.28e7.
Depletion of RabGGTa (Rab geranylgeranyltransferase subunit alpha) [DRSC12189] resulted in: calcium entry signal, replicate 1 = 2.53e7; calcium entry signal, replicate 2 = 2.47e7; resting calcium signal, replicate 1 = 1.05e7; resting calcium signal, replicate 2 = 1.14e7.
CG15734 [DRSC19701] scored calcium entry signal, replicate 1 = 3.20e7; calcium entry signal, replicate 2 = 5.15e7; resting calcium signal, replicate 1 = 1.67e7; resting calcium signal, replicate 2 = 2.18e7.
After knock-down of NimB5 (Nimrod B5) [DRSC01885] the results were calcium entry signal, replicate 1 = 4.93e7; calcium entry signal, replicate 2 = 3.30e7; resting calcium signal, replicate 1 = 2.17e7; resting calcium signal, replicate 2 = 1.58e7.
After knock-down of Synj (Synaptojanin) [DRSC04526] the results were calcium entry signal, replicate 1 = 3.32e7; resting calcium signal, replicate 1 = 1.48e7.

Targets above whose target name begins with W or w (2):
wac (wee Augmin) [DRSC08349]: calcium entry signal, replicate 1 = 3.44e7; calcium entry signal, replicate 2 = 4.15e7; resting calcium signal, replicate 1 = 1.82e7; resting calcium signal, replicate 2 = 1.91e7
wls (wntless) [DRSC10605]: calcium entry signal, replicate 1 = 3.28e7; calcium entry signal, replicate 2 = 3.22e7; resting calcium signal, replicate 1 = 1.97e7; resting calcium signal, replicate 2 = 1.28e7
